Experimental data: PubChem BioAssay AID493014 (National Center for Advancing Translational Sciences (NCATS), 2011)
Several values for one entry are separate records, joined by “and”; a condition that tells them apart may be missing. Equal entries are not always repeated. This is one part of the list. The main result of the screen is listed elsewhere. These columns were measured beside it and carry no call. Compounds called inactive in the main read-out are mostly missing here. The note in brackets gives the kind of curve behind each potency; many fits are weak.

Assay: qHTS Assay to Find Inhibitors of Chronic Active B-Cell Receptor Signaling
Conditions: ABC-DLBCL IkBa-CBG/CBR reporter, luminescence ratio (green luciferase fused to IkBa over red control in TMD8 lymphoma cells), 4 h
Summary of the method: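 Concentration-response series (up to 46 uM) were applied to TMD8 dual-reporter cells for 4 h at 37C with doxycycline. Green/red ratio, after filter-overlap correction, defined %Activity; red signal alone was normalised to basal cells and zero luminescence.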

[1] = measured here: CBR red luminescence, cell number
[2] = measured here: IkBa-CBG green luminescence

Row | Structure (SMILES) | AC50 [1] | AC50 [2]
1 | COc1ccc2c(c1)CC/C(=C\c1ccc(C)o1)C2=O | 6.31 µM [rising, partial curve, poor fit] | –
2 | O=C(NCc1nc2ccccc2[nH]1)C1=C[C@@H](c2ccc(Br)cc2)C[C@@H](OCc2ccc(CO)cc2)O1 | 0.112 µM [falling, full curve, poor fit] | –
3 | O=C(NCc1ccco1)c1ccccc1Nc1ccc(F)cc1 | 3.66 µM [rising, single point] | –
4 | O=C(NC1CCCCCC1)c1cc2ccccc2oc1=O | 0.794 µM [falling, full curve, poor fit] | –
5 | Nc1ccccc1-c1nc2ccccc2s1 | 17.8 µM [rising, partial curve, poor fit] | –
6 | CCOCCn1c(SCc2cccc(C)c2)nc2c1c(=O)[nH]c(=O)n2C | 20.6 µM [falling, single point] | –
7 | C=CC[C@@H](CC(=O)N[C@@H](CO)Cc1ccccc1)C(=O)NC[C@@H](OC(=O)[C@@H](CC=C)CC(=O)OC(C)(C)C)c1ccccc1 | 14.6 µM [rising, partial curve, poor fit] | –
8 | COc1cccc(Nc2nnc(SCN3C(=O)c4ccccc4C3=O)s2)c1 | 2.59 µM [rising, full curve] | –
9 | Cc1cc(C)c2c(c1)c1nnc(SCCN3CCCCC3)nc1n2C | – | 17.8 µM [rising, partial curve, poor fit]
10 | O=c1c2ccccc2nc(-c2ccc(Cl)cc2Cl)n1CCCn1ccnc1 | 6.31 µM [rising, single point] | –
11 | CCCCc1ccc(NC(=S)NCc2ccc(OC)cc2)cc1 | 35.5 µM [falling, single point] | –
12 | COc1ccc(CNC(=O)CCCOc2cc(=O)n(C)c3ccccc23)cc1 | 23.1 µM [rising, single point] | 23.1 µM [falling, single point]
13 | COc1ccc(C(=O)Nc2nnc(Cc3ccccc3)s2)c(OC)c1 | 11.2 µM [rising, partial curve] | –
14 | CCOC(=O)C1(CC2CC2)CCN(Cc2cn(C)c3ccccc23)CC1 | 11.2 µM [falling, partial curve] | –
15 | O=C(Nc1cccc(-c2nc3ccccc3s2)c1)c1cc(-n2cnnc2)ccc1Cl | 3.55 µM [falling, partial curve, poor fit] | –
16 | CCNC(=S)Nc1ccc(OC(F)(F)F)cc1 | 2.82 µM [rising, partial curve, poor fit] | –
17 | COc1cc(C(=O)Nc2cccc(-c3nnc(-c4ccco4)o3)c2)ccc1OC(C)=O | 10 µM [falling, partial curve, poor fit] | –
18 | O=C(NNC(=O)c1c(O)c2ccccc2[nH]c1=O)c1ccccc1Br | 1.78 µM [falling, full curve] | –
19 | CCN(C(=O)COC(=O)/C(C#N)=C/c1ccc(N(C)C)cc1)C1CCS(=O)(=O)C1 (stereo unspecified) | 29.1 µM [rising, single point] | –
20 | CCOC(=O)c1c(-c2ccccc2)oc2ccc(O)c(CN3CCN(C)CC3)c12 | 14.6 µM [falling, partial curve, poor fit] | –
21 | CC(NC(=O)COc1ccc(Br)cc1)C1CCCO1 (stereo unspecified) | 5.01 µM [rising, full curve, poor fit] | –

Row | Structure (SMILES) | AC50 [1] | AC50 [2]
22 | COC(=O)c1ccc2nc(-c3cccc(N)c3)cn2c1 | 25.1 µM [falling, single point] | –
23 | CN(C(=O)c1cccc(NC(=O)C2CCCN(C(=O)OC(C)(C)C)C2)c1)C1CCCC1 (stereo unspecified) | 32.6 µM [falling, single point] | –
24 | Clc1cnc(N/N=C/c2cccs2)c(Cl)c1 | 10 µM [falling, partial curve] | –
25 | O=c1[nH]c(=O)n(Cc2ccco2)c2c1C(C(F)(F)F)(C(F)(F)F)N=C(c1ccco1)N2 | 17.8 µM [rising, partial curve, poor fit] | –
26 | COc1ccccc1Nc1nc(NCCO)nc(N)c1[N+](=O)[O-] | 1.26 µM [rising, full curve] | –
27 | CCn1c(N)nc2ccccc21 | 28.2 µM [falling, single point] | –
28 | O=c1oc(-c2ccc([N+](=O)[O-])cc2)nc2ccccc12 | 1.41 µM [falling, full curve] | –
29 | Cc1c(Cl)cccc1Nc1nc(N)nc(CN2CCCCCC2)n1 | 29.1 µM [falling, single point] | –
30 | Cc1ccc2c(c1)/C(=C/c1ccccc1F)C(=O)N2 | 35.5 µM [falling, single point] | –
31 | O=C(Cn1cc([N+](=O)[O-])cn1)Nc1ccn(Cc2c(F)c(F)cc(F)c2F)n1 | 18.4 µM [rising, single point] | –
32 | CCOC(=O)Cn1cnc2c(nnn2-c2cccc(OC)c2)c1=O | 17.8 µM [rising, partial curve, poor fit] | –
33 | Cc1cccn2cc(-c3ccc(S(=O)(=O)N4CCOCC4)cc3)nc12 | 6.31 µM [rising, full curve] | –
34 | O=C(Nc1ccc(N2CCOCC2)cc1)C1CCCCN1S(=O)(=O)c1ccccc1 (stereo unspecified) | 8.91 µM [rising, partial curve, poor fit] | –
35 | CCc1nnc2n1N=C(c1ccccc1)CS2 | 35.5 µM [falling, single point] | –
36 | Cn1c(=NC(=O)CCl)sc2ccccc21 | 25.1 µM [falling, single point] | –
37 | COc1ccc(S(=O)(=O)Nc2ccc(S(=O)(=O)N(C)C)cc2)cc1[N+](=O)[O-] | 6.51 µM [falling, single point] | –
38 | O=C(CN1CCOCC1)NNc1c2ccccc2nc2ccccc12 | – | 35.5 µM [rising, partial curve, poor fit]
39 | Cc1ccccc1NC(=O)c1cccc(NC(=O)c2ccco2)c1 | 17.8 µM [falling, single point] | –
40 | Cc1nc(C)c(C(=O)N/N=C/c2cc(Br)ccc2O)s1 | 7.08 µM [falling, partial curve, poor fit] | –
41 | Cn1ccc(C(=O)NC(=S)Nc2ccc([N+](=O)[O-])cc2O)n1 | 3.55 µM [falling, full curve] | –
42 | Cc1ccc(O)c(N/C=C/C(=O)c2ccc(F)cc2)c1 | 15.8 µM [falling, single point] | –

Row | Structure (SMILES) | AC50 [1] | AC50 [2]
43 | CC(C)c1ccc(/C=N/NC(=O)c2ccccn2)cc1 | 7.94 µM [falling, partial curve] | –
44 | CC1=CC(=O)C(C(C)C)=C/C1=N/OS(=O)(=O)c1ccccc1 | 20 µM [falling, single point] | 20 µM [rising, single point]
45 | O=[N+]([O-])c1cc(/C=N/Nc2nc(N3CCCCC3)nc(N3CCCCC3)n2)ccc1O | 0.82 µM [falling, full curve, poor fit] | –
46 | CC(=O)N(C)c1ccc(NC(=O)C(Sc2ccccc2)c2ccccc2)cc1 (stereo unspecified) | 35.5 µM [rising, single point] | –
47 | CSc1ccc(/C=C/C(=O)OCC(=O)NC2CCS(=O)(=O)C2)cc1 (stereo unspecified) | 18.4 µM [rising, single point] | –
48 | COc1nc(NCCN2CCOCC2)nc(Nc2ccc([N+](=O)[O-])cc2)n1 | 32.6 µM [falling, single point] | –
49 | Cc1ccc(C2=NN(CC(=O)NCCc3ccccc3)C(=O)CC2)cc1 | 1.26 µM [rising, full curve, poor fit] | –
50 | CC(CCc1ccccc1)NC(=O)C(=O)c1c[nH]c2ccccc12 (stereo unspecified) | 5.01 µM [falling, partial curve] | –
51 | Cc1c(Cl)cccc1NC(=S)N=Nc1c(O)n(CN2CCOCC2)c2ccccc12 | – | 5.8 µM [falling, full curve]
52 | CC(C)(C)NCCOCCOc1ccccc1-c1ccccc1 | 16.4 µM [falling, single point] | –
53 | CCCOC(=O)C1C2C=CC(C2)C1C(=O)OCC(=O)c1ccccc1 (stereo unspecified) | 32.6 µM [rising, single point] | –
54 | O=C(NC(=S)Nc1ccc(CN2CCOCC2)cc1)c1ccc2c(c1)OCCO2 | 6.31 µM [falling, full curve, poor fit] | –
55 | COCCNC(=O)Cn1nc(-c2ccccc2)c2ccccc2c1=O | 35.5 µM [rising, single point] and 20 µM [rising, partial curve, poor fit] | –
56 | CCOC(=O)c1cnn(-c2ccc(C(F)(F)F)cn2)c1N | 5.17 µM [rising, full curve] | –
57 | CCc1cccc2c(C(=O)CSc3nncn3-c3ccccc3OC)c[nH]c12 | 11.6 µM [falling, partial curve, poor fit] | –
58 | O=C(NCCCn1ccnc1)c1cc(-c2cccc(O)c2)on1 | 12.6 µM [falling, partial curve, poor fit] | –
59 | Nc1nc(N)c(N=O)c(OCC2CCCCC2)n1 | 12.6 µM [rising, partial curve] | 10 µM [falling, partial curve]
60 | O=C(Nc1ccc2c(c1)CCCN2C(=O)c1ccco1)c1cc([N+](=O)[O-])ccc1Cl | 18.4 µM [falling, partial curve] | –
61 | O=C(O)CCCNc1c(C(=O)Nc2ccc(Cl)cc2)cc([N+](=O)[O-])cc1[N+](=O)[O-] | 15.8 µM [falling, partial curve, poor fit] | –
62 | COc1cc(S(=O)(=O)Nc2ccccc2C(=O)N2CCCCC2)ccc1NC(C)=O | 29.1 µM [rising, single point] | –
63 | O=C(N/N=C/C=C/c1ccc2c(c1)OCO2)c1ccc([N+](=O)[O-])cc1 | 0.0146 µM [rising, full curve, poor fit] | –

Some of these compounds in order of number of heavy atoms, smallest number first.
Row | Structure (SMILES) | AC50 [1] | AC50 [2]
4 | O=C(NC1CCCCCC1)c1cc2ccccc2oc1=O | 0.794 µM [falling, full curve, poor fit] | –
50 | CC(CCc1ccccc1)NC(=O)C(=O)c1c[nH]c2ccccc12 (stereo unspecified) | 5.01 µM [falling, partial curve] | –
18 | O=C(NNC(=O)c1c(O)c2ccccc2[nH]c1=O)c1ccccc1Br | 1.78 µM [falling, full curve] | –
14 | CCOC(=O)C1(CC2CC2)CCN(Cc2cn(C)c3ccccc23)CC1 | 11.2 µM [falling, partial curve] | –
62 | COc1cc(S(=O)(=O)Nc2ccccc2C(=O)N2CCCCC2)ccc1NC(C)=O | 29.1 µM [rising, single point] | –
25 | O=c1[nH]c(=O)n(Cc2ccco2)c2c1C(C(F)(F)F)(C(F)(F)F)N=C(c1ccco1)N2 | 17.8 µM [rising, partial curve, poor fit] | –
